Paper PMC13175477
These are yes or no findings as the source states them, for the method shown. Binding seen in cells or lysates may run through a third protein. Some binding calls cover weakened binding; strength is not graded here. For some of these results: Where a sequence is shown, tags or fusion partners need not be part of it.

Chains of the proteins cited; added tags and fusions are not shown. Lines headed by an entry give the natural chain unless they say otherwise; changes in a name come on top. A line that says so, or that is headed by a name, gives the form on record, which may keep a tag or linker. Residues count along the entry.
UniProt Q7Z2W4: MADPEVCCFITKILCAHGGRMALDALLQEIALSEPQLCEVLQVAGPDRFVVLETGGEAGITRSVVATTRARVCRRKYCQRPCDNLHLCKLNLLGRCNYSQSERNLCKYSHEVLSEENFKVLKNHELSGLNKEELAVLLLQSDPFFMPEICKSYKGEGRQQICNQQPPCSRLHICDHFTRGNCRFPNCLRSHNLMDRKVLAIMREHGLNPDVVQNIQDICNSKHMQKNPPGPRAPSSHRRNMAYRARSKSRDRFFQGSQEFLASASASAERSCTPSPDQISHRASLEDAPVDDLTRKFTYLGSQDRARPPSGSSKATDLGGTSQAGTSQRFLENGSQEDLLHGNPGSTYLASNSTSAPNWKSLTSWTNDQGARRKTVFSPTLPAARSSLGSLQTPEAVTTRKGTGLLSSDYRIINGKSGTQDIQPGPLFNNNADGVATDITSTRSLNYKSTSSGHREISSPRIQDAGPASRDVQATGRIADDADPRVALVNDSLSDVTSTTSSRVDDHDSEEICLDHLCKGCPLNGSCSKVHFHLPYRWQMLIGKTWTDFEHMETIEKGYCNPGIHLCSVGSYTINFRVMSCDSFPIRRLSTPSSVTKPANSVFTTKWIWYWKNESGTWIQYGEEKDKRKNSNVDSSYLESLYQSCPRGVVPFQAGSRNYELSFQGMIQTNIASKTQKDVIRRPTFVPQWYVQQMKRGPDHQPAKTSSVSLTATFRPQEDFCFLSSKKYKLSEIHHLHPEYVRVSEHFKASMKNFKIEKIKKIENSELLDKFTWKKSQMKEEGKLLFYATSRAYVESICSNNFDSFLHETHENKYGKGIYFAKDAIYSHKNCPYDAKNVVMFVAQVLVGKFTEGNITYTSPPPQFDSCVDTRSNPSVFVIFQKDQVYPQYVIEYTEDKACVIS
ZAP-S E39K (Q7Z2W4, form named): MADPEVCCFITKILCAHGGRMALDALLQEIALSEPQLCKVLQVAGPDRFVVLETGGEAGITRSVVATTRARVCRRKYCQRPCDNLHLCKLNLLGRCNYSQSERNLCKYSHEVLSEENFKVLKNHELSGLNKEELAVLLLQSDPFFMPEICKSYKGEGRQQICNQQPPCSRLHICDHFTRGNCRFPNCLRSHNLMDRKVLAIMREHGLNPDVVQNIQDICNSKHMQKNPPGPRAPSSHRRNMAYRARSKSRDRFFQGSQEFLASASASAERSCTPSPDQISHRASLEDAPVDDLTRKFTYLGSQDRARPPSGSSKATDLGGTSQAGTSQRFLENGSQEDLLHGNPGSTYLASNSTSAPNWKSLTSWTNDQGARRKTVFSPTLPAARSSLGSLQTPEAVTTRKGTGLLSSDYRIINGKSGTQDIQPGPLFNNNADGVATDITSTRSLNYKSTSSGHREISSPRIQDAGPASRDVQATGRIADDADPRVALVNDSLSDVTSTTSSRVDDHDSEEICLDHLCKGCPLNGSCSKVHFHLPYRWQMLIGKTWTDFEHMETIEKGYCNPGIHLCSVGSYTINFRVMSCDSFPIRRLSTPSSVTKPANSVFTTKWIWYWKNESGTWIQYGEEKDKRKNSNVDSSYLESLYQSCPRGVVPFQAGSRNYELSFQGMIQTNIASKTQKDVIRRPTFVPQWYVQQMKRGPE
ZAP-S wildtype (Q7Z2W4, form named): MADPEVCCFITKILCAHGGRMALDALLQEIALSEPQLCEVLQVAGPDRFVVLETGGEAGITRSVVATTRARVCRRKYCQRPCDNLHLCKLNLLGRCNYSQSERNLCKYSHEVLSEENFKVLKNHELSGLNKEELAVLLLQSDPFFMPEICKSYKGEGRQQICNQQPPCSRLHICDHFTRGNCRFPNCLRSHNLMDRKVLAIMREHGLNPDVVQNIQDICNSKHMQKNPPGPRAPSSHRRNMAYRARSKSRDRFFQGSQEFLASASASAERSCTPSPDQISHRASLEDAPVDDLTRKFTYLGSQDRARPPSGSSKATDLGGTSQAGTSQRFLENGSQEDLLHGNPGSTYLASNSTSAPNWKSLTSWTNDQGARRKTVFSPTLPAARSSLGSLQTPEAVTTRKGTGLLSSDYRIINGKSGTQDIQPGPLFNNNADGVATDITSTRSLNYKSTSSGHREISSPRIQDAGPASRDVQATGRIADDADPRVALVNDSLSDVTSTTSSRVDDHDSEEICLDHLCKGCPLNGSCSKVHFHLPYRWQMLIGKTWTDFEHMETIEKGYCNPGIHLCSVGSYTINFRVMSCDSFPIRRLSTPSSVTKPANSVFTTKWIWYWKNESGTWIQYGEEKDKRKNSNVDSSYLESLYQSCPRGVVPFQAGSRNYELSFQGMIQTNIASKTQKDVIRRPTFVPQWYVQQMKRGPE
UniProt Q86WV6: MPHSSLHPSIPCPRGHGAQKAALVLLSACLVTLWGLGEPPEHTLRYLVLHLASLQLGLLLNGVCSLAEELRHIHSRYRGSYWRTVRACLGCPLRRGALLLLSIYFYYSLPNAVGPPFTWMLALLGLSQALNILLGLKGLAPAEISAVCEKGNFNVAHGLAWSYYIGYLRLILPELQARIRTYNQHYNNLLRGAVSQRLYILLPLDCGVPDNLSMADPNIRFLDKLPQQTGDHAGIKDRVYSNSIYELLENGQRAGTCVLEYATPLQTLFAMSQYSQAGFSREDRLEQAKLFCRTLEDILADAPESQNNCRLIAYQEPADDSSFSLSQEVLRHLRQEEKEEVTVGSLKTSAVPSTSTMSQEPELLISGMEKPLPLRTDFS
UniProt Q14258: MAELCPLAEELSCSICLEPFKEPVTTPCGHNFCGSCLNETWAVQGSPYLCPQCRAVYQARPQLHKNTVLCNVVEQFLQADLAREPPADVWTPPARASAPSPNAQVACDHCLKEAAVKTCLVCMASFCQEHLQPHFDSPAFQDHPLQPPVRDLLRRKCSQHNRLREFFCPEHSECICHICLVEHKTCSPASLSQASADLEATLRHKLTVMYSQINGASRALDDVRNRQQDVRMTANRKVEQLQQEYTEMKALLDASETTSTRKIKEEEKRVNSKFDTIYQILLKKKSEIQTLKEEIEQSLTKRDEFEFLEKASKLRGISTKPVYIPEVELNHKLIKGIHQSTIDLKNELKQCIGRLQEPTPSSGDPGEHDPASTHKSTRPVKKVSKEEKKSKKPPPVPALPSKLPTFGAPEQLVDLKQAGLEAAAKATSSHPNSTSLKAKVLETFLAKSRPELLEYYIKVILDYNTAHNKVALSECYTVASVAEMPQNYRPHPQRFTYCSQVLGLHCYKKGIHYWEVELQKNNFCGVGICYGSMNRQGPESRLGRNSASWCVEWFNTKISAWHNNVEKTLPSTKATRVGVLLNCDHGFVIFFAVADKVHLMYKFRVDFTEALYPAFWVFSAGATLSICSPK
UniProt Q8IUD6: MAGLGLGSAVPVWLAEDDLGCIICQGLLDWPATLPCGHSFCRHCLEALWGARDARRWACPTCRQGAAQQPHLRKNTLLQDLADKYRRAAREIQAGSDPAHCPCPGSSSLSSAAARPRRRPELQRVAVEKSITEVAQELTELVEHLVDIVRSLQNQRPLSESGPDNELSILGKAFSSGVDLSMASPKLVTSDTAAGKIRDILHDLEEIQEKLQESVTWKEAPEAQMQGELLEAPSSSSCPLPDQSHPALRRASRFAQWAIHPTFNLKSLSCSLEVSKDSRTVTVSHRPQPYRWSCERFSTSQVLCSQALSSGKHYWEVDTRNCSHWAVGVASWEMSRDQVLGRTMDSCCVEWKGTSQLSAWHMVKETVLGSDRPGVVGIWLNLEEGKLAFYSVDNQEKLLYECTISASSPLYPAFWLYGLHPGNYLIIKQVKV
UniProt Q8NG06: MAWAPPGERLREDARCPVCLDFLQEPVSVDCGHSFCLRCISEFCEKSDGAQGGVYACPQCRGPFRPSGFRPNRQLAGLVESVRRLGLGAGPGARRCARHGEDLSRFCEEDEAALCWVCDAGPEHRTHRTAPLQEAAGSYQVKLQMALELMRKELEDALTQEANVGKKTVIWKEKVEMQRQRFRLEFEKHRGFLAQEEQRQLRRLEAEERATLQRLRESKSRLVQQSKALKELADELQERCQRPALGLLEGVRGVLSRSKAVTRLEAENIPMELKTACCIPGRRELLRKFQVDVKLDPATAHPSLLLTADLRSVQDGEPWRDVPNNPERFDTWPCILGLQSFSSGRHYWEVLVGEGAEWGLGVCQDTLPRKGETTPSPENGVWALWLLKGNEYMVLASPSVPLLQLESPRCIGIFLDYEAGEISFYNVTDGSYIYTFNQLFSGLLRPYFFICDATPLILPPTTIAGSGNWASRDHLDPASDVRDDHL
UniProt Q6UXG8, residues 35-535: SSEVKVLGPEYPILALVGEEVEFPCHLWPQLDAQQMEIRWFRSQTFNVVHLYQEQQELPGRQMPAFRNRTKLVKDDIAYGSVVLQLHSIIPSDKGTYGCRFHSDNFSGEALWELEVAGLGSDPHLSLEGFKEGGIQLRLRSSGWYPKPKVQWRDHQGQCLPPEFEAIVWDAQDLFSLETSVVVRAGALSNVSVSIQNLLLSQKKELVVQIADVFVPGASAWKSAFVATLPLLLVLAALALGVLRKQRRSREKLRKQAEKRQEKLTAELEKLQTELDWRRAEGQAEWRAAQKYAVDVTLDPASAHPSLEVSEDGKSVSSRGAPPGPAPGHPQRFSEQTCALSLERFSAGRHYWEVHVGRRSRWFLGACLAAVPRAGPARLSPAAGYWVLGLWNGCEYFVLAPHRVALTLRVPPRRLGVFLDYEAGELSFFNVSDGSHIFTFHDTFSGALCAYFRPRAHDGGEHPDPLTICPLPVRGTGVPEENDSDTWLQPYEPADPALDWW
UniProt Q61510: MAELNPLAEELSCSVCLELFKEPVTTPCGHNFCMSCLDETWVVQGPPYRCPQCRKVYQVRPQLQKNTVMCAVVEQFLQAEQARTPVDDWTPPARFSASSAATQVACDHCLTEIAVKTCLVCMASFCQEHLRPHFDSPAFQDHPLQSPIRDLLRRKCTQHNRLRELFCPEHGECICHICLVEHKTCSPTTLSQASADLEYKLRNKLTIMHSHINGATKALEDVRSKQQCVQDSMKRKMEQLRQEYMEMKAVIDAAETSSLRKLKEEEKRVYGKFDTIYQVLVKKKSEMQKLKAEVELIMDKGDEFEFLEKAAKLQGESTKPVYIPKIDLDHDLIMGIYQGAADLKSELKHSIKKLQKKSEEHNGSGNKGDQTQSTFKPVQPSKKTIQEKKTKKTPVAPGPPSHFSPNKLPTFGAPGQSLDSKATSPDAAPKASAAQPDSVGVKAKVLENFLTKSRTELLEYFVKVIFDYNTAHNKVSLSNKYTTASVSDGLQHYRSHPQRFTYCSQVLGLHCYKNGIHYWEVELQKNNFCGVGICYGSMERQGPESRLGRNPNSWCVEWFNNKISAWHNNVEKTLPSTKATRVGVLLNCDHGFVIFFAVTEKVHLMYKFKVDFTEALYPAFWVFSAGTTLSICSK

Legend:
[1] = molecular target: ZAP-L-FLAG (human) (UniProt Q7Z2W4); assay: co-IP; HEK293T ZAP-/- TRIM25-/- co-transfected, 48 h; ZAP precipitated from lysates (ZAP-L-FLAG with anti-FLAG; antibody for ZAP-S not stated); buffers as in the co-IP methods; western blot
[2] = molecular target: ZAP-L-FLAG (human) (UniProt Q7Z2W4); assay: co-IP; HEK293T ZAP-/- TRIM25-/- KHNYN-/- N4BP1-/- co-transfected; ZAP-L complexes isolated from lysates; western blot; in Fig 5g 500ng of ZAP-L and TRIM25 plasmids with increasing amounts of KHNYN plasmid
[3] = molecular target: ZAP-L-FLAG (human) (UniProt Q7Z2W4); assay: co-IP; HEK293T co-transfected, 48 h; lysis in 10mM HEPES pH7.5, 30mM KCl, 40uM EDTA, 0.1% Igepal CA-630, 1mM DTT; FLAG-tagged sensor precipitated with anti-FLAG on Protein G Dynabeads, 2h at 4C; final washes with 300mM KCl, 0.5% Igepal; western blot
[4] = molecular target: ZAP-S E39K (human) (UniProt Q7Z2W4); assay: co-IP; HEK293T ZAP-/- TRIM25-/- co-transfected, 48 h; ZAP precipitated from lysates (ZAP-L-FLAG with anti-FLAG; antibody for ZAP-S not stated); buffers as in the co-IP methods; western blot
[5] = molecular target: ZAP-S wildtype (human) (UniProt Q7Z2W4); assay: as above
[6] = molecular target: ZAP^E39K (ZAP-L) (human) (UniProt Q7Z2W4); assay: as above
[7] = molecular target: T1, RIG-I-FLAG (human) (UniProt O95786); assay: co-IP; HEK293T co-transfected, 48 h; lysis in 10mM HEPES pH7.5, 30mM KCl, 40uM EDTA, 0.1% Igepal CA-630, 1mM DTT; FLAG-tagged sensor precipitated with anti-FLAG on Protein G Dynabeads, 2h at 4C; final washes with 300mM KCl, 0.5% Igepal; western blot
T1 sequence: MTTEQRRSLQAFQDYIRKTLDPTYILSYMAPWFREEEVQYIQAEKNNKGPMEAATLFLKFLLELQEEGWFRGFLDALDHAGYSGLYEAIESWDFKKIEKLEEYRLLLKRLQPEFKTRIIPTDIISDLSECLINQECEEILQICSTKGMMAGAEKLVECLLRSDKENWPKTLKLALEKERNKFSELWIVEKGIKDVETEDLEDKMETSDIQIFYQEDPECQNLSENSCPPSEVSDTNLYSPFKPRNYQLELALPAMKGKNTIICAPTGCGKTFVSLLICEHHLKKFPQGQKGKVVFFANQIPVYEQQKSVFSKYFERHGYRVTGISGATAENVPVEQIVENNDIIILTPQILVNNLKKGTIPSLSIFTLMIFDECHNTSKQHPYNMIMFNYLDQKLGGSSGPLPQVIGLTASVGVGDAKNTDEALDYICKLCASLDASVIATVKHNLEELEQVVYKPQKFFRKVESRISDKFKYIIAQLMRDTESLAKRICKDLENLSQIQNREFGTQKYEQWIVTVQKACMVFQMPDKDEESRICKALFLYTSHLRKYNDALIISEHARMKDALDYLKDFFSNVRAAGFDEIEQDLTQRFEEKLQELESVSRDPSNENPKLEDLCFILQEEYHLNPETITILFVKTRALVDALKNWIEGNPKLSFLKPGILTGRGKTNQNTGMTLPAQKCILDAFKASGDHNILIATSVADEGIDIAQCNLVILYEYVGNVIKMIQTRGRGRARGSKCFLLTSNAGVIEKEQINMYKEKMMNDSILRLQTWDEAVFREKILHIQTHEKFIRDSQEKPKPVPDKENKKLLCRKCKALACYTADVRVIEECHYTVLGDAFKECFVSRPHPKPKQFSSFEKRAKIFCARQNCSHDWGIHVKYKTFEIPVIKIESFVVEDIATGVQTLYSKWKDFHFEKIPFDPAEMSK

[8] = molecular target: T2, OAS1-FLAG (human) (UniProt P00973); assay: as above
T2 sequence: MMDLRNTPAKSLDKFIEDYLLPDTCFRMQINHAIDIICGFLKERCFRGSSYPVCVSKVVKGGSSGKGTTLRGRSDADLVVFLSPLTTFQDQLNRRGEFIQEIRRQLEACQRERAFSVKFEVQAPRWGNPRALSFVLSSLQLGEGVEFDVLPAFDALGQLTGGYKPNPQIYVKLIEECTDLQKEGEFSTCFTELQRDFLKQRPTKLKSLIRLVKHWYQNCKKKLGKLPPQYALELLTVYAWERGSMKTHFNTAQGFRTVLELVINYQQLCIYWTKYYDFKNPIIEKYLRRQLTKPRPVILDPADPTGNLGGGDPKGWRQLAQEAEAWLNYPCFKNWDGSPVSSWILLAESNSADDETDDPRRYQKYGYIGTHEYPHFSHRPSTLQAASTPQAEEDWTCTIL

[9] = molecular target: STING-FLAG (human) (UniProt Q86WV6); assay: as above
[10] = molecular target: T3, mouse ZAP-L (mouse) (UniProt Q3UPF5); assay: as above
T3 sequence: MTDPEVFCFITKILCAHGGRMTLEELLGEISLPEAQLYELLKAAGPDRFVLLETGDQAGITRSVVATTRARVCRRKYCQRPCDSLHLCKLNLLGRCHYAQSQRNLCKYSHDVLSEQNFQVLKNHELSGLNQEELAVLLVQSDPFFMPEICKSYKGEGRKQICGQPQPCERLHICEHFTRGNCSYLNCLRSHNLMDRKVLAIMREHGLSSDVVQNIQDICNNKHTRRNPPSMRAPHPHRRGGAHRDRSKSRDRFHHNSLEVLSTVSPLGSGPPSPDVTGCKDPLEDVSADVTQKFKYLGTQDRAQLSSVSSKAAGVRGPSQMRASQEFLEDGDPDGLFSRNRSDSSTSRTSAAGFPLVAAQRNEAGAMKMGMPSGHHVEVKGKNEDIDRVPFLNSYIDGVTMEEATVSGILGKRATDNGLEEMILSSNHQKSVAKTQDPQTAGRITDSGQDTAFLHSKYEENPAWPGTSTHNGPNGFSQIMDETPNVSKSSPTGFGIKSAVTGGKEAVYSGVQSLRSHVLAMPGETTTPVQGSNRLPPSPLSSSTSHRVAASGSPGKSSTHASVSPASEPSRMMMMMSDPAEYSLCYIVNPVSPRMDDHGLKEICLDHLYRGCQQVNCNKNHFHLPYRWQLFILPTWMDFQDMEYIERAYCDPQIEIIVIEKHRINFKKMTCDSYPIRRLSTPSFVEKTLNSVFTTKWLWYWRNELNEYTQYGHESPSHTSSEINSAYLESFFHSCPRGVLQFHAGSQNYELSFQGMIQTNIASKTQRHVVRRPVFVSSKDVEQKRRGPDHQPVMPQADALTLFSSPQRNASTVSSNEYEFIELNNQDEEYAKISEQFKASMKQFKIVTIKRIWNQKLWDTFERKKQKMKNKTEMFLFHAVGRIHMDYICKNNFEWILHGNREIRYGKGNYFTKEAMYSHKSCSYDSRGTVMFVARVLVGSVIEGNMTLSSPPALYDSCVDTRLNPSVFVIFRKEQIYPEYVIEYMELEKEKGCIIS

TRIM25-HA (from UniProt Q14258 1-630) (enzyme)
binding [1]: binds
binding [2]: binds
binding [3]: binds

TRIM25^K469E (from UniProt Q14258 1-630) (enzyme)
binding [1]: binds
binding [4]: binds
binding [5]: binds
binding [6]: binds

T25-Riplet^SPRY (from UniProt Q14258 1-403; Q8IUD6 241-432)
binding [1]: no binding
binding [7]: binds

Riplet-T25^SPRY (from UniProt Q8IUD6 1-240; Q14258 404-630)
binding [1]: binds

TRIM58 C57S C60S (from UniProt Q8NG06 1-486) (enzyme)
binding [8]: binds

BTNL9-HA (from UniProt Q6UXG8 35-535)
binding [9]: binds

mouse TRIM25 (from UniProt Q61510 1-634) (enzyme)
binding [10]: binds
